# Laboratory results as given in paper PMC12040169 (PLOS Biology, 2025).
# The other results are listed elsewhere or left out.
# System: T1, CTL2-GFP (C. trachomatis L2/434/Bu, GFP-expressing)
# T1 construct: L2/434/Bu, GFP-expressing
# Design: species or system HeLa; Intracellular C. trachomatis growth in HeLa cells, bulk GFP fluorescence relative to DMSO
# Conditions: bulk GFP, single well; 28.5 h, 10 µM; inhibitor
row,SMILES,% of control remaining
1,CC(O)CNc1nccnc1-c1ccccc1 (stereo not shown) [CBK089257],109.501%
2,C/C(=N\NC(=O)c1ccccc1O)c1ccc(NC(=O)c2ccc(C)cc2)cc1 [CBK261251],114.258%
3,C=CCNC(CC(=O)Nc1ccc(C)c(Cl)c1)C(=O)O (stereo not shown) [CBK266892],131.331%
4,CC(=O)N1CCCc2cc(C(O)CN3CCCC(C)(C)C3)ccc21 (stereo not shown) [CBK282143],156.383%
5,Cn1ccnc1C1(O)CC2CCC(C1)N2C(=O)c1cccc(Cl)c1 (stereo not shown) [CBK284091],125.82%
6,O=C(Cn1nnc(-c2ccc(CN3CCOCC3)cc2)n1)Nc1ccc(Br)cc1 [CBK127364],100%
7,N#Cc1c(NC(=O)CSc2nnc3c(n2)[nH]c2ccccc23)sc2c1CCCC2 [CBK262417],100.512%
8,Cc1ccc(CS(=O)(=O)N2CCN(CCO)C(C)C2)c(F)c1 (stereo not shown) [CBK304702],114.706%
9,Cc1nn(CC(=O)N2CCC(C)CC2)c(=O)c2cc3sccc3n12 [CBK284083],116.284%
10,CCCCN(C(=O)CC1SC(NC2CCCCCC2)=NC1=O)c1ccccc1 (stereo not shown) [CBK067392],134.717%
11,Cc1c(C(C)NCC2CCCC2O)cnn1-c1ccc(C#N)cc1 (stereo not shown) [CBK304019],102.871%
12,O=C(NCc1ccc2c(c1)OCO2)c1cncc(-c2ccc(C(=O)N3CCOCC3)cc2)c1 [CBK158614],84.3677%
13,Cc1noc(C)c1S(=O)(=O)Nc1ccc(C(=O)Nc2ccc(F)cc2)cc1 [CBK034410],108.366%
14,O=C(c1ccc2ccccc2n1)N1CCC(F)CC1 [CBK200276],116.123%
15,CCc1nc2c(OCc3ccc(S(C)(=O)=O)cc3)cccn2c1N(CCOC)C(C)=O [CBK147846],114.531%
16,Cc1[nH]nc(C(F)(F)F)c1Cl [CBK025387],101.951%
17,Cc1cc2c(o1)c1cnn(CC(=O)N3CCCC(C)C3)c(=O)c1n2C (stereo not shown) [CBK284218],139.215%
18,Cc1cc(C)n(CCNCc2cc(-c3ccccc3)c[nH]c2=O)n1 [CBK284770],64.34%
19,COCCn1c(CO)nnc1[C@H]1C[C@@H](NC(=O)c2ncc(F)cc2F)C1 [CBK307458],149.674%
20,CC(NC(=O)Cc1cccc(F)c1)c1nnc2n1CCCCC2 (stereo not shown) [CBK305975],132.555%
21,Cc1cn([C@H]2C[C@@H](O)[C@@H](CN)O2)c(=O)[nH]c1=O [CBK201315],128.138%
22,O=C(CCCn1ccnc1)Nc1ccc(N2CCCCC2)c(F)c1 [CBK281385],165.209%
23,COCCOC(=O)N1CCC(C(=O)NC(c2ccccc2)c2ccsc2)CC1 (stereo not shown) [CBK060155],162.331%
24,Oc1c(CN2CCN(c3ccc(F)cc3)CC2)cc(Br)c2cccnc12 [CBK268051],26.152%
25,N#Cc1cccc(NC(=O)c2cccs2)c1 [CBK066855],102.74%
26,CN(C)CCN(Cc1ccccc1)Cc1c(F)cccc1Cl [CBK261867],100.977%
27,OCc1cccc(-c2cncc(Nc3ccccc3)n2)c1 [CBK065576],157.91%

row,SMILES,% of control remaining
1,CCOc1ccc(NC(=O)N(CCOC)Cc2cnn(C)c2)cc1Cl [CBK306697],141.079%
2,O=C(O)CSc1c[nH]c2ccccc12 [CBK026377],109.939%
3,CC(c1cccc(F)c1)n1cc(C(=O)NCCc2ccco2)nn1 (stereo not shown) [CBK283582],111.743%
4,c1ccc(CCN2CCCN(c3ccnc(OCCN4CCOCC4)n3)CC2)cc1 [CBK083810],169.05%
5,COC(=O)[C@@H]1Cc2ncn(C(C)C)c2CN1C(=O)c1ccc(F)cc1 [CBK288990],137.076%
6,CC(=O)Nc1cccc(-c2cc(N3CCN(CC(=O)N(C)c4ccccc4)CC3)ncn2)c1 [CBK091134],250.607%
7,CCc1nccn1CCCNC(=O)Nc1cc(-c2cccnc2)nn1C [CBK306657],107.699%
8,O=C(NCc1ccc2c(c1)OCO2)N1CCCC(CO)C1 (stereo not shown) [CBK156034],163.203%
9,Cc1nc2cc(C(=O)O)ccc2[nH]1 [CBK220035],111.438%
10,COc1ccc(-c2nc(NC(=O)C3CC3)cnc2-c2cccc(C(F)(F)F)c2)cc1 [CBK036852],172.689%
11,CSCCCNC(=O)N1CCN(c2cc(C(F)(F)F)ccn2)CC1 [CBK156433],103.677%
12,COCCNc1nccnc1-c1cccc(C(=O)N2CCN(C)CC2)c1 [CBK036864],115.019%
13,Cc1csc(N2CCC(Nc3cc(CO)ccc3Cl)CC2)n1 [CBK306440],117.892%
14,Oc1ccc(Nc2nc3nonc3nc2Nc2ccccc2)cc1 [CBK263551],48.2375%
15,CCOC(=O)Cn1c(CN2CCC(Cc3ccccc3)CC2)nc2c1c(=O)n(C)c(=O)n2C [CBK269454],160.817%
16,Cc1cc(NC(=O)CN2CCN(c3ccccc3)CC2)c2ccccc2n1 [CBK278322G],87.9635%
17,Cc1cccc(Cc2cccc(C3CCCN(C(=O)c4ccc(=O)[nH]c4)C3)n2)c1 (stereo not shown) [CBK286243],140.687%
18,Cc1nc(-c2ccsc2)sc1C(=O)NC1CCCN(c2ncccn2)C1 (stereo not shown) [CBK305632],90.0305%
19,O=C(c1ccco1)N1CCc2c([nH]c3ccccc23)C12CCN(Cc1ccccc1)CC2 [CBK286313],132.315%
20,C[C@@H]1[C@H]2C[C@@H](C[C@H]1NC1=NC(=O)C(CC(=O)O)S1)C2(C)C (stereo partly shown) [CBK059514],128.286%
21,COc1ccc(OC)c(NC(=O)CN2CCN(c3ccccn3)CC2)c1 [CBK262978],116.725%
22,Cc1csc2ncc(C(=O)NCc3ccc4c(c3)OCO4)c(=O)n12 [CBK287292],89.2669%
23,COc1cccc(NC(=O)CSCc2n[nH]c(=O)[nH]2)c1 [CBK266058],117.433%
24,CC(C)C(=O)N1C[C@@H](N(C)C)[C@H](c2cn(C)c3ccccc23)C1 [CBK282717],148.296%
25,O=C(O)CCCCc1nn(-c2ccc(Cl)c(Cl)c2)c2c1CCC2 [CBK012529],141.793%
26,COc1ccc([C@H]2CN(Cc3ccccc3)[C@@H]3CCN(C(=O)Cc4ccsc4)C[C@H]23)cc1 [CBK285551],49.9145%
27,COCCCOc1nc2ccccc2nc1NC(C)C [CBK115737],108.806%

# 6 of the compounds above, with tabs.
row	SMILES	% of control remaining
8	O=C(NCc1ccc2c(c1)OCO2)N1CCCC(CO)C1 (stereo not shown) [CBK156034]	163.203%
9	Cc1nc2cc(C(=O)O)ccc2[nH]1 [CBK220035]	111.438%
10	COc1ccc(-c2nc(NC(=O)C3CC3)cnc2-c2cccc(C(F)(F)F)c2)cc1 [CBK036852]	172.689%
11	CSCCCNC(=O)N1CCN(c2cc(C(F)(F)F)ccn2)CC1 [CBK156433]	103.677%
12	COCCNc1nccnc1-c1cccc(C(=O)N2CCN(C)CC2)c1 [CBK036864]	115.019%
13	Cc1csc(N2CCC(Nc3cc(CO)ccc3Cl)CC2)n1 [CBK306440]	117.892%

# Continuation:

row,SMILES,% of control remaining
1,CC(Oc1ccc(Cl)cc1Cl)C(=O)Nc1ccc(N2CCN(C)CC2)cc1 (stereo not shown) [CBK266780],162.104%
2,CC(Cn1cccn1)NC(=O)N1CCN(Cc2ccc(F)cc2)CC1 (stereo not shown) [CBK306948],115.33%
3,COc1ccc(C2C(C(=O)c3ccco3)=C(O)C(=O)N2CCN2CCOCC2)cc1OC (stereo not shown) [CBK264544],119.084%
4,CN1CCN(CCCNC(=O)N(CCC#N)C2CCCCC2)CC1 [CBK156346],134.117%
5,CC(C)(C)c1csc(NC(=O)C2CC(=O)N(Cc3cccs3)C2)n1 (stereo not shown) [CBK175547],130.455%
6,CCNC(=O)[C@H]1CC[C@]2(CC1)CNC(=O)c1cc(Cl)ccc1O2 [CBK284890],138.578%
7,O=c1ccc2ccc(-c3cccc(C(F)(F)F)c3)nc2[nH]1 [CBK073717],135.911%
8,O=C(Nc1ccc2cc(Br)cnc2n1)c1ccccc1[N+](=O)[O-] [CBK063253],122.209%
9,CCCn1c(SCC(=O)Nc2scc(CC(C)C)c2C(=O)OCC)n[nH]c1=O [CBK295615],112.842%
10,FC(F)(F)Oc1ccc(-c2cc(Nc3ccc(N4CCOCC4)cc3)ncn2)cc1 [CBK090934],239.065%
11,CCCN1CC2(CCN(Cc3nccn3C)CC2)CC1C(=O)O (stereo not shown) [CBK307658],133.647%
12,O=C(CSC1c2ccccc2Oc2ccccc21)Nc1ccccc1C(=O)O [CBK266499],155.811%
13,COC(=O)c1cc(C)sc1NC(=S)Nc1ccn(Cc2ccc(Br)cc2)n1 [CBK266934],141.954%
14,CCCS(=O)(=O)N1CCN(S(=O)(=O)c2ccc(NC(C)=O)cc2)CC1 [CBK264288],110.531%
15,COc1ccc(-c2nc3ccccc3s2)cc1NC(=O)c1ccc(OCC(C)C)cc1 [CBK268878],148.658%
16,Nc1ncc(-c2ccc(C(=O)N3CCOCC3)cc2)cc1C(=O)NCc1ccc(Cl)c(Cl)c1 [CBK158570],52.7339%
17,CCC1C(=O)NCCN1C(=O)c1cc2cc(C)ccc2n1C (stereo not shown) [CBK281729],106.849%
18,CCN(CC)C(=O)c1sc(NC(=O)c2cc(-c3ccncc3)nc3c(C)cccc23)c(C#N)c1C [CBK267771],134.185%
19,CC(C)c1nc(CN2CCN(c3ccc4nncn4n3)CC2)cs1 [CBK306219],134.934%
20,Cc1n[nH]c2c1CN(Cc1nc(C)c(C)n1C)CC2 [CBK307456],147.134%
21,O=C(Cc1ccsc1)NCCn1nc(-c2cccs2)ccc1=O [CBK283842],112.959%
22,CC(C)CNC(=O)C(=O)NCCc1ccc(F)cc1 [CBK264903],130.727%
23,Cn1nccc1C(=O)NC(Cc1ccsc1)c1cccnc1 (stereo not shown) [CBK285394],105.521%
24,Cc1nc2ccc(C(=O)NCCn3ccnc3C)cc2s1 [CBK282477],149.126%
25,Cc1nc(C)c(C(=O)N2CCC(c3cc4ncccc4[nH]3)CC2)s1 [CBK283396],148.409%
